According to article PMC12378234, “Enzyme-mediated aminoglycoside resistance without target mimicry” (Communications Chemistry, 2025):
Values joined by “and” are separate entries in the source; they are usually repeats but may differ in a detail not shown here. Equal values may be shown once. Read-outs that look alike come from different tables or passages of the source. The source gives many values for each of these; only a part stands here.

Tested on: BL21(DE3) E. coli transformed with pUCP18 vector expressing untagged AAC(3)-IIIa
Type: cell-based
Procedure: Ten milliliters of LB containing […] ampicillin were inoculated from glycerol stocks of transformed BL21(DE3) E. coli containing genes expressing the proteins of interest in pUCP18 vectors. These cultures were incubated at 37 °C with 200 rpm agitation for 16 h. Turbidity was measured through OD600 with a NanoDrop OneC Spectrometer (Thermo Scientific). From the initial cultures, secondary 10 mL cultures were prepared with OD600 values of 0.1. These cultures were grown until OD600 values of 0.4–0.6 were reached and diluted to bring all cultures to the same OD600. Cultures were induced with 1 mM Isopropyl β-D-1-thiogalactopyranoside and incubated for 4 h. Two microliters of culture was added to 198 μL of LB with an appropriate aminoglycoside titration concentration. Each titration point was repeated n = 4 times. The formulated 96-well culture plate (Sarstedt) had OD600 measured on a 20-min interval over 17 h using a BioTek Cytation 5 Cell Imaging Multimode Reader, incubating at 37 °C with 282 cpm orbital agitation. Experiments were repeated with fresh cultures on separate days to ensure consistent trends. Data was analyzed in Microsoft Excel and GraphPad5. The remainder of the culture immediately had its RNA isolated for qPCR experiments.

Compound: CN[C@@H]1[C@@H](O)[C@@H](O[C@@H]2[C@@H](O)[C@H](O[C@H]3OC(CN)=CC[C@H]3N)[C@@H](N)C[C@H]2N)OC[C@]1(C)O [Sisomicin, sisomicin]
- OD600 growth curve (3 ug/mL Sisomicin, time point 00:19:10): 0.101 and 0.111 and 0.099
- OD600 growth curve (3 ug/mL Sisomicin, time point 00:39:10): 0.104 and 0.115 and 0.102
- OD600 growth curve (3 ug/mL Sisomicin, time point 00:59:10): 0.112 and 0.121 and 0.111 and 0.108
- OD600 growth curve (3 ug/mL Sisomicin, time point 01:19:10): 0.125 and 0.132 and 0.122 and 0.117
- OD600 growth curve (3 ug/mL Sisomicin, time point 01:39:10): 0.143 and 0.147 and 0.136 and 0.13
- OD600 growth curve (3 ug/mL Sisomicin, time point 01:59:10): 0.168 and 0.167 and 0.154 and 0.149
- OD600 growth curve (3 ug/mL Sisomicin, time point 02:19:10): 0.208 and 0.191 and 0.177 and 0.174
- OD600 growth curve (3 ug/mL Sisomicin, time point 02:39:10): 0.256 and 0.223 and 0.208 and 0.206
- OD600 growth curve (3 ug/mL Sisomicin, time point 02:59:10): 0.313 and 0.259 and 0.242 and 0.245
- OD600 growth curve (3 ug/mL Sisomicin, time point 03:19:10): 0.364 and 0.286 and 0.271 and 0.274
- OD600 growth curve (3 ug/mL Sisomicin, time point 03:39:10): 0.395 and 0.308 and 0.297 and 0.3
- OD600 growth curve (3 ug/mL Sisomicin, time point 03:59:10): 0.42 and 0.329 and 0.319 and 0.322
- OD600 growth curve (3 ug/mL Sisomicin, time point 04:19:10): 0.442 and 0.346 and 0.336 and 0.335
- OD600 growth curve (3 ug/mL Sisomicin, time point 04:39:10): 0.47 and 0.371 and 0.357 and 0.362
- OD600 growth curve (3 ug/mL Sisomicin, time point 04:59:10): 0.503 and 0.395 and 0.384 and 0.39
- OD600 growth curve (3 ug/mL Sisomicin, time point 05:19:10): 0.526 and 0.414 and 0.405 and 0.411
- OD600 growth curve (3 ug/mL Sisomicin, time point 05:39:10): 0.551 and 0.432 and 0.422 and 0.43
- OD600 growth curve (3 ug/mL Sisomicin, time point 05:59:10): 0.574 and 0.451 and 0.437 and 0.449
- OD600 growth curve (3 ug/mL Sisomicin, time point 06:19:10): 0.595 and 0.464 and 0.45 and 0.463
- OD600 growth curve (3 ug/mL Sisomicin, time point 06:39:10): 0.605 and 0.471 and 0.456 and 0.474
- OD600 growth curve (3 ug/mL Sisomicin, time point 06:59:10): 0.611 and 0.475 and 0.462 and 0.481
- OD600 growth curve (3 ug/mL Sisomicin, time point 07:19:10): 0.621 and 0.483 and 0.468 and 0.486
- OD600 growth curve (3 ug/mL Sisomicin, time point 07:39:10): 0.63 and 0.49 and 0.475 and 0.493
- OD600 growth curve (3 ug/mL Sisomicin, time point 07:59:10): 0.638 and 0.498 and 0.481 and 0.499
- OD600 growth curve (3 ug/mL Sisomicin, time point 08:19:10): 0.649 and 0.504 and 0.485 and 0.508
- OD600 growth curve (3 ug/mL Sisomicin, time point 08:39:10): 0.659 and 0.512 and 0.49 and 0.514
- OD600 growth curve (3 ug/mL Sisomicin, time point 08:59:10): 0.681 and 0.523 and 0.504 and 0.533
- OD600 growth curve (3 ug/mL Sisomicin, time point 09:19:10): 0.697 and 0.539 and 0.517 and 0.551
- OD600 growth curve (3 ug/mL Sisomicin, time point 09:39:10): 0.706 and 0.551 and 0.529 and 0.563
- OD600 growth curve (3 ug/mL Sisomicin, time point 09:59:10): 0.713 and 0.556 and 0.535 and 0.57
- OD600 growth curve (3 ug/mL Sisomicin, time point 10:19:10): 0.718 and 0.558 and 0.537 and 0.574
- OD600 growth curve (3 ug/mL Sisomicin, time point 10:39:10): 0.724 and 0.56 and 0.537 and 0.578
- OD600 growth curve (3 ug/mL Sisomicin, time point 10:59:10): 0.729 and 0.562 and 0.539 and 0.583
- OD600 growth curve (3 ug/mL Sisomicin, time point 11:19:10): 0.734 and 0.561 and 0.539 and 0.584
- OD600 growth curve (3 ug/mL Sisomicin, time point 11:39:10): 0.738 and 0.56 and 0.54 and 0.586
- OD600 growth curve (3 ug/mL Sisomicin, time point 11:59:10): 0.742 and 0.559 and 0.536 and 0.586
- OD600 growth curve (3 ug/mL Sisomicin, time point 12:19:10): 0.746 and 0.563 and 0.538 and 0.589
- OD600 growth curve (3 ug/mL Sisomicin, time point 12:39:10): 0.754 and 0.577 and 0.558 and 0.598
- OD600 growth curve (3 ug/mL Sisomicin, time point 12:59:10): 0.755 and 0.576 and 0.557 and 0.595
- OD600 growth curve (3 ug/mL Sisomicin, time point 13:19:10): 0.749 and 0.573 and 0.553 and 0.59
- OD600 growth curve (3 ug/mL Sisomicin, time point 13:39:10): 0.744 and 0.57 and 0.55 and 0.585
- OD600 growth curve (3 ug/mL Sisomicin, time point 13:59:10): 0.736 and 0.567 and 0.548 and 0.581
- OD600 growth curve (3 ug/mL Sisomicin, time point 14:19:10): 0.739 and 0.565 and 0.549 and 0.577
- OD600 growth curve (3 ug/mL Sisomicin, time point 14:39:10): 0.737 and 0.562 and 0.547 and 0.573
- OD600 growth curve (3 ug/mL Sisomicin, time point 14:59:10): 0.731 and 0.561 and 0.545 and 0.568
- OD600 growth curve (3 ug/mL Sisomicin, time point 15:19:10): 0.726 and 0.557 and 0.542 and 0.563
- OD600 growth curve (3 ug/mL Sisomicin, time point 15:39:10): 0.719 and 0.556 and 0.541 and 0.558
- OD600 growth curve (3 ug/mL Sisomicin, time point 15:59:10): 0.713 and 0.554 and 0.538
- OD600 growth curve (3 ug/mL Sisomicin, time point 16:19:10): 0.707 and 0.552 and 0.536 and 0.55
- OD600 growth curve (3 ug/mL Sisomicin, time point 16:39:10): 0.702 and 0.55 and 0.533 and 0.545
- OD600 growth curve (3 ug/mL Sisomicin, time point 16:59:10): 0.692 and 0.549 and 0.531 and 0.543
- OD600 growth curve (3 ug/mL Sisomicin, time point 17:19:10): 0.685 and 0.547 and 0.529 and 0.538
- OD600 growth curve (6 ug/mL Sisomicin, time point 00:19:10): 0.099 and 0.1 and 0.105 and 0.102
- OD600 growth curve (6 ug/mL Sisomicin, time point 00:39:10): 0.1 and 0.102 and 0.107 and 0.104
- OD600 growth curve (6 ug/mL Sisomicin, time point 00:59:10): 0.103 and 0.108 and 0.113
- OD600 growth curve (6 ug/mL Sisomicin, time point 01:19:10): 0.106 and 0.111 and 0.117 and 0.112
- OD600 growth curve (6 ug/mL Sisomicin, time point 01:39:10): 0.11 and 0.116 and 0.124 and 0.117
- OD600 growth curve (6 ug/mL Sisomicin, time point 01:59:10): 0.115 and 0.123 and 0.133 and 0.124
- OD600 growth curve (6 ug/mL Sisomicin, time point 02:19:10): 0.121 and 0.132 and 0.144
- OD600 growth curve (6 ug/mL Sisomicin, time point 02:39:10): 0.129 and 0.141 and 0.154 and 0.142
- OD600 growth curve (6 ug/mL Sisomicin, time point 02:59:10): 0.138 and 0.151 and 0.163 and 0.15
- OD600 growth curve (6 ug/mL Sisomicin, time point 03:19:10): 0.145 and 0.161 and 0.172 and 0.158
- OD600 growth curve (6 ug/mL Sisomicin, time point 03:39:10): 0.152 and 0.171 and 0.18 and 0.166
- OD600 growth curve (6 ug/mL Sisomicin, time point 03:59:10): 0.16 and 0.181 and 0.187 and 0.171
- OD600 growth curve (6 ug/mL Sisomicin, time point 04:19:10): 0.169 and 0.191 and 0.195 and 0.178
- OD600 growth curve (6 ug/mL Sisomicin, time point 04:39:10): 0.178 and 0.201 and 0.203 and 0.183
- OD600 growth curve (6 ug/mL Sisomicin, time point 04:59:10): 0.188 and 0.211
- OD600 growth curve (6 ug/mL Sisomicin, time point 05:19:10): 0.199 and 0.22 and 0.219 and 0.191
- OD600 growth curve (6 ug/mL Sisomicin, time point 05:39:10): 0.213 and 0.23 and 0.227 and 0.195
- OD600 growth curve (6 ug/mL Sisomicin, time point 05:59:10): 0.224 and 0.238 and 0.235 and 0.199
- OD600 growth curve (6 ug/mL Sisomicin, time point 06:19:10): 0.235 and 0.247 and 0.243 and 0.203
- OD600 growth curve (6 ug/mL Sisomicin, time point 06:39:10): 0.247 and 0.256 and 0.251 and 0.206
- OD600 growth curve (6 ug/mL Sisomicin, time point 06:59:10): 0.256 and 0.267 and 0.258 and 0.21
- OD600 growth curve (6 ug/mL Sisomicin, time point 07:19:10): 0.267 and 0.277 and 0.266 and 0.214
- OD600 growth curve (6 ug/mL Sisomicin, time point 07:39:10): 0.274 and 0.288 and 0.272 and 0.218
- OD600 growth curve (6 ug/mL Sisomicin, time point 07:59:10): 0.283 and 0.3 and 0.279 and 0.223
- OD600 growth curve (6 ug/mL Sisomicin, time point 08:19:10): 0.292 and 0.31 and 0.286 and 0.23
- OD600 growth curve (6 ug/mL Sisomicin, time point 08:39:10): 0.299 and 0.318 and 0.292 and 0.237
